The supplement of paper PMC12823440, “Inhibitors supercharge kinase turnover through native proteolytic circuits” (Nature, 2025)
Structures can show the parent of a compound that is named as a salt. The list shows a part of the results. Hit calls seldom repeat between salt and free forms of one compound.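 In K562 cells expressing nanoluciferase-fused kinases, luminescence was recorded at 4 h intervals between 2 and 18 h, normalized as percent of control with DMSO at 100% and a positive control at 0%. A significant (2 sigma) signal drop marks a time point as decreased. The authors' rule for a hit is not shown and takes in more than the number of time points.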

The chains behind the UniProt entries cited, without tags or fusion partners. Where a name states a change or a piece, a line headed by the entry shows the natural chain unless it says otherwise.
UniProt Q9Y616: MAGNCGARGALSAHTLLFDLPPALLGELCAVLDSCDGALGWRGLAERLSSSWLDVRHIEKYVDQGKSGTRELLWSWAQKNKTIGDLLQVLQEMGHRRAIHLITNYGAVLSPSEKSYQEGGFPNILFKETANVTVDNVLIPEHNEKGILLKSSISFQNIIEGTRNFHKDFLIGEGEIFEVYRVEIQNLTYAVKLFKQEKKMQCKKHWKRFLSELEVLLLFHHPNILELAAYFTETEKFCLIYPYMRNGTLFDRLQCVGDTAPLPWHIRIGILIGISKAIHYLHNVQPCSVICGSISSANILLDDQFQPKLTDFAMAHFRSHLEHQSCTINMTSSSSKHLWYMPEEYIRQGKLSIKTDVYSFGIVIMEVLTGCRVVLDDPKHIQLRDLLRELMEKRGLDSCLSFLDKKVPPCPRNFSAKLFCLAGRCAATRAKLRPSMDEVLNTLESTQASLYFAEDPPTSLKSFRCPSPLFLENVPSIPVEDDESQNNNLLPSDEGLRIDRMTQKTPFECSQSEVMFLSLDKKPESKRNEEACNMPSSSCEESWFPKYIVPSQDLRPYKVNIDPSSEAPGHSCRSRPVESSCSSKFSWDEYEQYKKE
UniProt P23458: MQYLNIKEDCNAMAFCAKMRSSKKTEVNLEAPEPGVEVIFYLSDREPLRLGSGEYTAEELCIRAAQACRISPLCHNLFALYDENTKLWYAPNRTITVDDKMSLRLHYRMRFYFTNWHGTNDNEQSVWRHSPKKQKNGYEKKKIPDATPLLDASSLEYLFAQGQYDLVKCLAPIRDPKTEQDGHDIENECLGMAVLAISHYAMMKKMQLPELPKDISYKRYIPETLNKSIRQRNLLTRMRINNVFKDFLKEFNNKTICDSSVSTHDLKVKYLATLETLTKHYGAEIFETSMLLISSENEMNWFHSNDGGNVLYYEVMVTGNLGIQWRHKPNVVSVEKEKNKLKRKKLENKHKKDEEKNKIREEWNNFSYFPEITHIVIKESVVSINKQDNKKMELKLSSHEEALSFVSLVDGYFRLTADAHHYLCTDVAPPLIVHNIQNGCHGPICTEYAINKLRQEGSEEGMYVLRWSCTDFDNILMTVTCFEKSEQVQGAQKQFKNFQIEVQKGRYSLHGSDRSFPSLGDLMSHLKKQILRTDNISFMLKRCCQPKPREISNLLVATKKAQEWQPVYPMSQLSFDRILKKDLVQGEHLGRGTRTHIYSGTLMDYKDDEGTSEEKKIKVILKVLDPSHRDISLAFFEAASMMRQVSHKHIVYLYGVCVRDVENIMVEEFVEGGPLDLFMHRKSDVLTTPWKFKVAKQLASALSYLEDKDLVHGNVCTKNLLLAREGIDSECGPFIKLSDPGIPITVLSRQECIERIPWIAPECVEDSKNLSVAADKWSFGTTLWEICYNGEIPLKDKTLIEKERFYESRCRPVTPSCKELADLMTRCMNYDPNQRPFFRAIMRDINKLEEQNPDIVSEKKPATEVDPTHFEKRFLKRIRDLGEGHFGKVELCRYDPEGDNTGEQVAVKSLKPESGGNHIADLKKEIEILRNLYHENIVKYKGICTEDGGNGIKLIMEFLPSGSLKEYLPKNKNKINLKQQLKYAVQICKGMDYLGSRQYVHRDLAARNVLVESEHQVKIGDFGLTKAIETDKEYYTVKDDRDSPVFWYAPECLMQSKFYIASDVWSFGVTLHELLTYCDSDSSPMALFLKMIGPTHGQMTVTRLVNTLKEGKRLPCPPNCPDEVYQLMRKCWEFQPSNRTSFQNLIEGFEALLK
UniProt P53667: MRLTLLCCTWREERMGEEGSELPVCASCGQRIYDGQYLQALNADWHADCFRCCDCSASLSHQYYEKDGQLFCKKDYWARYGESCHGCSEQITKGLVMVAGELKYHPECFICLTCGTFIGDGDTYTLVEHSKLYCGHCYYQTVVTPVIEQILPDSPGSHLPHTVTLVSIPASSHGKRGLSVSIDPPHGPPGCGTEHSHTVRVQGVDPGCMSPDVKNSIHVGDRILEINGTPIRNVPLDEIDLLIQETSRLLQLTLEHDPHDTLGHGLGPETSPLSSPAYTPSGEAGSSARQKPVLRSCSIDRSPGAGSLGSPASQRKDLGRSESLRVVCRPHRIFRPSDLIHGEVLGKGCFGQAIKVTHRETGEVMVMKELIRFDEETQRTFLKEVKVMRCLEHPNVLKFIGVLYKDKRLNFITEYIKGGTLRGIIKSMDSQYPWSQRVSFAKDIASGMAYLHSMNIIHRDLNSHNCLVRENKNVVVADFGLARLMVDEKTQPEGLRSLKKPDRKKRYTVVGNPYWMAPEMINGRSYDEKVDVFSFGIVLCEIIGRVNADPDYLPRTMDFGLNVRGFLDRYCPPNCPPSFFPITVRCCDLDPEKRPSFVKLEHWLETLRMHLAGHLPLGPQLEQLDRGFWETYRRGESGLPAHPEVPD
UniProt P53671: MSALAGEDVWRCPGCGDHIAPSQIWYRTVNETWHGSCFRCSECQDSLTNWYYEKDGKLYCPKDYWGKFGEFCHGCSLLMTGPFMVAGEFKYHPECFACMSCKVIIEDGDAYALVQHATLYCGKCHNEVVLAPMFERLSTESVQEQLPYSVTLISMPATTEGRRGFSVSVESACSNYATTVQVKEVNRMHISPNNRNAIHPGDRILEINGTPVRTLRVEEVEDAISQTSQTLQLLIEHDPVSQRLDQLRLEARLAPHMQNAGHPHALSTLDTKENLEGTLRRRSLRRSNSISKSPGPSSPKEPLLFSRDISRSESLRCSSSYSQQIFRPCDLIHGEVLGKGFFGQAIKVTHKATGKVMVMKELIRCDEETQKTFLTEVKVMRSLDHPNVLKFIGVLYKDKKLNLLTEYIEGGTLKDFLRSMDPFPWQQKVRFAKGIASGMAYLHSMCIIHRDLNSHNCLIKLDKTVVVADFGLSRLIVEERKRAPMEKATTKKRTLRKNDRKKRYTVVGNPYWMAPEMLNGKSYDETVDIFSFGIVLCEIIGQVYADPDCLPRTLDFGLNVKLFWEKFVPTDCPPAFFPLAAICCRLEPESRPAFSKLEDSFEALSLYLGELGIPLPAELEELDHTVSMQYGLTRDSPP
UniProt Q8IWU2: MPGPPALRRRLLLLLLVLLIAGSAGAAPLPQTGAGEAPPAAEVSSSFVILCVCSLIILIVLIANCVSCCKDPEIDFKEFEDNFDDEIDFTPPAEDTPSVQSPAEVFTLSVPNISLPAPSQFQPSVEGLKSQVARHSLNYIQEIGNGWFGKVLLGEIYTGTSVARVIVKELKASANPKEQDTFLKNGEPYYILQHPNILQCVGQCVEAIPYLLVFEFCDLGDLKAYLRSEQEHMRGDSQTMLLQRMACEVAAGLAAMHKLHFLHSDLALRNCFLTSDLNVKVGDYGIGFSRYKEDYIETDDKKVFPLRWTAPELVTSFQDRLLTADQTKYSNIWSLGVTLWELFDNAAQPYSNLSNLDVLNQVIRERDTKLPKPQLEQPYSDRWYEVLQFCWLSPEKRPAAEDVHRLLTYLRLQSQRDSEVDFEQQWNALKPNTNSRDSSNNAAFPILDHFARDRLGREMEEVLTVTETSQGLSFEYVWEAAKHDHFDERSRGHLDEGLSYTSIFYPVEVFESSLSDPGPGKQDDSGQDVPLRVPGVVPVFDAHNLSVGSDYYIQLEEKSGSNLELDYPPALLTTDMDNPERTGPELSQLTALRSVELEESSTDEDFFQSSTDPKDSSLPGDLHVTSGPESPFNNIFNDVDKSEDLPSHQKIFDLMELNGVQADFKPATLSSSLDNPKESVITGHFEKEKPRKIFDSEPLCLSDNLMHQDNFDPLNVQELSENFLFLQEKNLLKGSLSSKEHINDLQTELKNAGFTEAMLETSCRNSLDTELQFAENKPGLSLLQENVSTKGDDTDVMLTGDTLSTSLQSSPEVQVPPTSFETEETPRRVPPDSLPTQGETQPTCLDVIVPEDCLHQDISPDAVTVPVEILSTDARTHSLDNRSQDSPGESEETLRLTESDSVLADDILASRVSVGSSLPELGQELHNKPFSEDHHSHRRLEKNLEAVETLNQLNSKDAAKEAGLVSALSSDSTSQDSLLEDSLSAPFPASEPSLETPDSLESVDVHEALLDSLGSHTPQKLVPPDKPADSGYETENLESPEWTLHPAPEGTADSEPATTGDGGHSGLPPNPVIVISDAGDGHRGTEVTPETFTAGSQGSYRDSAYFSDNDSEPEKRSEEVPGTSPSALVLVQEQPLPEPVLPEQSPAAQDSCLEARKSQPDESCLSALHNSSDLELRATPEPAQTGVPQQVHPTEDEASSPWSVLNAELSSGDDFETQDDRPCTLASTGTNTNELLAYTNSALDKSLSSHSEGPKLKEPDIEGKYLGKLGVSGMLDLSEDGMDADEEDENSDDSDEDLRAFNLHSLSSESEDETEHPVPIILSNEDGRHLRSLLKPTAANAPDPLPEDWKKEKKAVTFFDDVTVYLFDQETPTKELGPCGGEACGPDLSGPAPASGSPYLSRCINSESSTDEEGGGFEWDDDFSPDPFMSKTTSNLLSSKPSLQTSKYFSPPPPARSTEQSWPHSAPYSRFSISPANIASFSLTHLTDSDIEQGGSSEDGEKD
UniProt P07948: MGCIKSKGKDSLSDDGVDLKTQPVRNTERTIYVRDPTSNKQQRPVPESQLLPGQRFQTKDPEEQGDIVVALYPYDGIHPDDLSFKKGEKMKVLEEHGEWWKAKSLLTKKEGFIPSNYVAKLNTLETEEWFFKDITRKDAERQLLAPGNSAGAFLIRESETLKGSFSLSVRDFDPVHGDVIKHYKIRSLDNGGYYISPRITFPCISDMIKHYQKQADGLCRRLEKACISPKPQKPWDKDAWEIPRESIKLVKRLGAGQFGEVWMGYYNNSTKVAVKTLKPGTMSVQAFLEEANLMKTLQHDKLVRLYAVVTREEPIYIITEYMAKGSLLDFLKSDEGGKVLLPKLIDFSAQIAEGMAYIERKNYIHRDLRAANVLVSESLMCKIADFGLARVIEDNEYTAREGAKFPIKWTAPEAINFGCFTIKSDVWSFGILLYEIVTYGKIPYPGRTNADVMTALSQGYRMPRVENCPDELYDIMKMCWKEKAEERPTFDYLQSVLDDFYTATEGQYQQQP
UniProt Q12851: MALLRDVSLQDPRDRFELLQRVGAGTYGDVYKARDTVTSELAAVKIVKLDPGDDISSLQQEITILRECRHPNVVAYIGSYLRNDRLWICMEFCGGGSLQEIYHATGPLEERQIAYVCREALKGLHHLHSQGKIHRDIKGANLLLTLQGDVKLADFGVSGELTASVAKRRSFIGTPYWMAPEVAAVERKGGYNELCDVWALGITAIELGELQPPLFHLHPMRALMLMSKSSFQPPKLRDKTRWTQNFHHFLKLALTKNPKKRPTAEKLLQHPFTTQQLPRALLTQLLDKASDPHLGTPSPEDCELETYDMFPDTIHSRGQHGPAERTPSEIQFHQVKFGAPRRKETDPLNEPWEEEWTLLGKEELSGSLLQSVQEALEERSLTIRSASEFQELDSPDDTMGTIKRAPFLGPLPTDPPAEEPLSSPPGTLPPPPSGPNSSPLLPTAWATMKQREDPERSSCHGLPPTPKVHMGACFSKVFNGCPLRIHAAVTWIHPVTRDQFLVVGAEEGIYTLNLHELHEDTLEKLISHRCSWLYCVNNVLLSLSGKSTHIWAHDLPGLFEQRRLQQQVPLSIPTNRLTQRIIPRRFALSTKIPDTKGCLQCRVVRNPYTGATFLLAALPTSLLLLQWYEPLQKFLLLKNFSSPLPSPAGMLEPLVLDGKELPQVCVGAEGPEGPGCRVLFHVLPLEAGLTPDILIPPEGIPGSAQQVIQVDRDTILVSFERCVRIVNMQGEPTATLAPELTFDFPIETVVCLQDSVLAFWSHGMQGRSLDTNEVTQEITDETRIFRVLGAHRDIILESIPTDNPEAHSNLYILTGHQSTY
UniProt P06239: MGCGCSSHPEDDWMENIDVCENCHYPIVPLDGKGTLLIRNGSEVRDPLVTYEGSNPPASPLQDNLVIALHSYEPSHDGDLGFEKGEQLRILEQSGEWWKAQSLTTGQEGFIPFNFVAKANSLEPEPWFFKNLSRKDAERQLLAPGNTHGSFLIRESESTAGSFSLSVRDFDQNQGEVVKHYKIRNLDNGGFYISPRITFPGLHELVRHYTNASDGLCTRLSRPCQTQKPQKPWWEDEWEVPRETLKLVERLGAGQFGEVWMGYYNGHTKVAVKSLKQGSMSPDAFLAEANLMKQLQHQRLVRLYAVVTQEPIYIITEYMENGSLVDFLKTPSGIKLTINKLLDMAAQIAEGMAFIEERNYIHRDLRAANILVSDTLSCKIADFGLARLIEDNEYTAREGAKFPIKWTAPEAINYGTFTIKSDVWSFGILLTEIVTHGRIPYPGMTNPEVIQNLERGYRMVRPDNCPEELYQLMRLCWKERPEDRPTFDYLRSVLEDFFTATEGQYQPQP

How the values were obtained:
Assay in all cases: kinase-Nluc reporter destabilization hit call (1 = scored as downregulated) (binary); higher = compound decreases kinase abundance
Settings in all cases: K562, 2-18 h
[1] = target: IRAK3 (UniProt Q9Y616)
[2] = target: JAK1 (UniProt P23458)
[3] = target: LIMK1 (UniProt P53667)
[4] = target: LIMK2 (UniProt P53671)
[5] = target: LMTK2 (UniProt Q8IWU2)
[6] = target: LYN (UniProt P07948)
[7] = target: MAP2K1 (UniProt Q02750)
[8] = target: MAP2K2 (UniProt P36507)
[9] = target: MAP4K2 (UniProt Q12851)
[10] = target: LCK (UniProt P06239)

Measured: kinase-Nluc reporter destabilization hit call

C=CC(=O)Nc1cc2c(Nc3ccc(F)c(Cl)c3)ncnc2cc1OCCCN1CCOCC1 [Canertinib]
inactive: [1]; 10 µM 0 | [2]; 10 µM 0 | [3]; 10 µM 0 | [4]; 10 µM 0 | [5]; 10 µM 0 | [6]; 10 µM 0 | [7]; 10 µM 0 | [8]; 10 µM 0 | [9]; 10 µM 0

Cc1cc(Nc2cc(N3CCN(C)CC3)nc(/C=C/c3ccccc3)n2)n[nH]1 [ENMD-2076 (Tartrate)]
inactive: [1]; 2.5 µM 0 | [2]; 2.5 µM 0 | [3]; 2.5 µM 0 | [4]; 2.5 µM 0 | [5]; 2.5 µM 0 | [6]; 2.5 µM 0 | [7]; 2.5 µM 0 | [8]; 2.5 µM 0 | [9]; 2.5 µM 0

CC(=O)c1c(C)c2cnc(Nc3ccc(N4CCN(C(=O)CCCCCC(=O)N[C@H](C(=O)N5C[C@H](O)C[C@H]5C(=O)NCc5ccc(-c6scnc6C)cc5)C(C)(C)C)CC4)cn3)nc2n(C2CCCC2)c1=O
inactive: [1]; 2.5 µM 0 | [2]; 2.5 µM 0 | [10]; 2.5 µM 0 | [3]; 2.5 µM 0 | [4]; 2.5 µM 0 | [5]; 2.5 µM 0 | [8]; 2.5 µM 0 | [9]; 2.5 µM 0

Cc1ccc(Nc2nccc(N(C)c3ccc4c(C)n(C)nc4c3)n2)cc1S(N)(=O)=O [Pazopanib (Hydrochloride)]
inactive: [1]; 10 µM 0 | [2]; 10 µM 0 | [10]; 10 µM 0 | [4]; 10 µM 0 | [5]; 10 µM 0 | [6]; 10 µM 0 | [7]; 10 µM 0 | [8]; 10 µM 0 | [9]; 10 µM 0

C[C@@]1(C(=O)Nc2ccc(F)nc2)CCCN1c1nc(Nc2cc(C3CC3)n[nH]2)c2cccn2n1
inactive: [1]; 10 µM 0 | [2]; 10 µM 0 | [3]; 10 µM 0 | [4]; 10 µM 0 | [5]; 10 µM 0 | [6]; 10 µM 0 | [7]; 10 µM 0 | [8]; 10 µM 0 | [9]; 10 µM 0

CN1CCN(c2ccc3nc(-c4c(N)c5c(F)cccc5[nH]c4=O)[nH]c3c2)CC1 [Dovitinib (lactate)]
inactive: [1]; 2.5 µM 0 | [2]; 2.5 µM 0 | [3]; 2.5 µM 0 | [4]; 2.5 µM 0 | [5]; 2.5 µM 0 | [7]; 2.5 µM 0 | [8]; 2.5 µM 0 | [9]; 2.5 µM 0

Cc1nc(Nc2ncc(C(=O)Nc3c(C)cccc3Cl)s2)cc(N2CCN(CCO)CC2)n1 [Dasatinib]
inactive: [1]; 2.5 µM 0 | [2]; 2.5 µM 0 | [3]; 2.5 µM 0 | [4]; 2.5 µM 0 | [5]; 2.5 µM 0 | [6]; 2.5 µM 0 | [7]; 2.5 µM 0 | [8]; 2.5 µM 0 | [9]; 2.5 µM 0

O=C1Cc2c([nH]c3ccc(Br)cc23)-c2ccccc2N1 [Kenpaullone]
inactive: [1]; 10 µM 0 | [2]; 10 µM 0 | [3]; 10 µM 0 | [4]; 10 µM 0 | [5]; 10 µM 0 | [6]; 10 µM 0 | [7]; 10 µM 0 | [8]; 10 µM 0 | [9]; 10 µM 0

N#CC(=Cc1cc(Cl)cc(Cl)c1)c1cccnc1
inactive: [3]; 10 µM 0 | [4]; 10 µM 0 | [6]; 10 µM 0 | [7]; 10 µM 0 | [9]; 10 µM 0

CN1CCN(c2ccc3nc(-c4c(N)c5c(F)cccc5[nH]c4=O)[nH]c3c2)CC1 [Dovitinib]
inactive: [1]; 2.5 µM 0 | [2]; 2.5 µM 0 | [3]; 2.5 µM 0 | [4]; 2.5 µM 0 | [5]; 2.5 µM 0 | [7]; 2.5 µM 0 | [8]; 2.5 µM 0 | [9]; 2.5 µM 0

COc1cc2ncnc(Nc3ccc(F)c(Cl)c3)c2cc1OCCCN1CCOCC1 [Gefitinib]
inactive: [1]; 10 µM 0 | [2]; 10 µM 0 | [3]; 10 µM 0 | [4]; 10 µM 0 | [5]; 10 µM 0 | [6]; 10 µM 0 | [7]; 10 µM 0 | [8]; 10 µM 0 | [9]; 10 µM 0

COc1cc(N2CCC(N3CCN(C)CC3)CC2)ccc1Nc1ncc(Cl)c(Nc2ccccc2S(=O)(=O)C(C)C)n1
inactive: [1]; 2.5 µM 0 | [2]; 2.5 µM 0 | [10]; 2.5 µM 0 | [3]; 2.5 µM 0 | [4]; 2.5 µM 0 | [5]; 2.5 µM 0 | [6]; 2.5 µM 0 | [7]; 2.5 µM 0 | [8]; 2.5 µM 0 | [9]; 2.5 µM 0

CC(C)(C)n1nc(-c2ccc(Cl)cc2)c2c(N)ncnc21
inactive: [1]; 10 µM 0 | [2]; 10 µM 0 | [3]; 10 µM 0 | [4]; 10 µM 0 | [5]; 10 µM 0 | [6]; 10 µM 0 | [7]; 10 µM 0 | [8]; 10 µM 0 | [9]; 10 µM 0

Two neighbouring entries already listed, quoted:
CN1CCN(c2ccc3nc(-c4c(N)c5c(F)cccc5[nH]c4=O)[nH]c3c2)CC1 [Dovitinib]
inactive: [1]; 2.5 µM 0 | [2]; 2.5 µM 0 | [3]; 2.5 µM 0 | [4]; 2.5 µM 0 | [5]; 2.5 µM 0 | [7]; 2.5 µM 0 | [8]; 2.5 µM 0 | [9]; 2.5 µM 0

COc1cc2ncnc(Nc3ccc(F)c(Cl)c3)c2cc1OCCCN1CCOCC1 [Gefitinib]
inactive: [1]; 10 µM 0 | [2]; 10 µM 0 | [3]; 10 µM 0 | [4]; 10 µM 0 | [5]; 10 µM 0 | [6]; 10 µM 0 | [7]; 10 µM 0 | [8]; 10 µM 0 | [9]; 10 µM 0

More records follow:

CC1(C)C(=O)N([C@H]2CCc3c(O)cccc32)c2nc(Nc3cccc(CN4CCCC4)c3)ncc21
inactive: [1]; 2.5 µM 0 | [2]; 2.5 µM 0 | [10]; 2.5 µM 0 | [3]; 2.5 µM 0 | [4]; 2.5 µM 0 | [5]; 2.5 µM 0 | [7]; 2.5 µM 0 | [8]; 2.5 µM 0 | [9]; 2.5 µM 0

C=CC(=O)N(C)CCOc1c(N)ncnc1-c1cc(F)cc(NC(=O)c2ccc(C3CC3)cc2F)c1C [Remibrutinib]
inactive: [1]; 10 µM 0 | [2]; 10 µM 0 | [10]; 10 µM 0 | [3]; 10 µM 0 | [4]; 10 µM 0 | [5]; 10 µM 0 | [6]; 10 µM 0 | [7]; 10 µM 0 | [8]; 10 µM 0 | [9]; 10 µM 0

C=CC(=O)N1CCC[C@@H](n2nc(-c3ccc(Oc4ccccc4)cc3)c3c(N)ncnc32)C1 [Ibrutinib]
inactive: [1]; 2.5 µM 0 | [2]; 2.5 µM 0 | [10]; 2.5 µM 0 | [3]; 2.5 µM 0 | [4]; 2.5 µM 0 | [5]; 2.5 µM 0 | [6]; 2.5 µM 0 | [7]; 2.5 µM 0 | [8]; 2.5 µM 0 | [9]; 2.5 µM 0

CNC(=O)c1cc(Oc2ccc(NC(=O)Nc3ccc(Cl)c(C(F)(F)F)c3)cc2)ccn1 [Sorafenib]
inactive: [1]; 2.5 µM 0 | [2]; 2.5 µM 0 | [3]; 2.5 µM 0 | [4]; 2.5 µM 0 | [5]; 2.5 µM 0 | [6]; 2.5 µM 0 | [7]; 2.5 µM 0 | [8]; 2.5 µM 0 | [9]; 2.5 µM 0
